Experimental data: PubChem BioAssay AID1259308 (NCATS, 2017)

Purpose: 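Knock-downs that increase output of a recombinant reporter protein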 (primary screen)
Cell system: human HEK293 embryonic kidney cells stably expressing firefly luciferase (HEK-CMV-Luc2-Hygro)
Knock-down reagent: single siRNA against human genes, 0.8 pmol siRNA per well
Timing: 72 h
Read-out: 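Luciferase light (ONE-Glo) measured on one replicate plate set and viability (CellTiter-Glo) on the other, scaled to a negative control siRNA, with robust z-scores and luciferase per cell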
Scale: total luciferase, z-score and total luciferase, % of control: higher = more reporter protein produced; luciferase per cell, z-score: higher = more reporter output per viable cell; viable cells, % of control: higher = more viable cells
Active means: 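Active when the median/MAD z-score for overall luciferase is greater than 3; a gene was taken forward for validation with new siRNAs if at least two of its three siRNAs passed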
Calls: active = raised luciferase; inactive = no rise
This is a random part of about 59,000 deposited reagents. About 1,510 of them (2.6%) were called active. 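Calls use total luciferase alone and ignore viability, so some active siRNAs may act by altering cell number.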 Reagents against one gene are numbered here.

Target gene | reagent | total luciferase, z-score | total luciferase, % of control | luciferase per cell, z-score | viable cells, % of control | Call
DLGAP2 | 1 | -1.14 | 59.2 | -0.842 | 82.6 | inactive
DLGAP2 | 2 | 1.44 | 111 | 1.07 | 93.1 | inactive
DLGAP2 | 3 | -1.75 | 47.1 | -1.79 | 84.5 | inactive
DLGAP2 | 4 | -1.19 | 58.3 | 0.166 | 62.3 | inactive
DLGAP2 | 5 | -0.8 | 66 | -0.702 | 88.7 | inactive
DLGAP2 | 6 | -0.572 | 70.5 | -0.237 | 83.9 | inactive
GTF2IP3 | 1 | 0.908 | 99.9 | 0.606 | 95.2 | inactive
GTF2IP3 | 2 | 0.555 | 92.9 | 0.457 | 92.1 | inactive
GTF2IP3 | 3 | -1.68 | 48.6 | -1.86 | 88.5 | inactive
TMEM160 | 1 | -1.29 | 56.2 | -1.62 | 96.1 | inactive
TMEM160 | 2 | 3.84 | 158 | 2.92 | 82 | active
TMEM160 | 3 | -1.14 | 59.1 | -0.865 | 83 | inactive
SSR2 | 1 | 1.46 | 111 | 1.04 | 94.1 | inactive
SSR2 | 2 | -0.966 | 62.7 | 1.33 | 49.4 | inactive
SSR2 | 3 | -0.092 | 80.1 | -0.236 | 95.2 | inactive
RABL6 | 1 | -1.8 | 46.1 | -0.889 | 65.1 | inactive
RABL6 | 2 | 1.07 | 103 | 1 | 88.5 | inactive
RABL6 | 3 | -0.301 | 75.9 | 0.854 | 67.7 | inactive
ZNF142 | 1 | -0.123 | 79.4 | 0.165 | 85 | inactive
ZNF142 | 2 | 1.93 | 120 | 1.9 | 81.6 | inactive
ZNF142 | 3 | -0.287 | 76.2 | 0.198 | 80.8 | inactive
CCT6B | 1 | 2.08 | 123 | 1.61 | 90.2 | inactive
CCT6B | 2 | 0.215 | 86.2 | 0.172 | 92 | inactive
CCT6B | 3 | 0.0239 | 82.4 | 0.0373 | 91.1 | inactive
C16orf82 | 1 | -0.878 | 64.4 | -0.461 | 81.3 | inactive
C16orf82 | 2 | 0.295 | 87.8 | 1.17 | 72 | inactive
C16orf82 | 3 | 0.271 | 87.3 | -0.39 | 108 | inactive
SOX11 | 1 | 1.18 | 105 | 1.27 | 84.4 | inactive
SOX11 | 2 | -1.25 | 57 | -1.6 | 97 | inactive
SOX11 | 3 | 0.253 | 86.9 | -0.271 | 104 | inactive
CPLANE2 | 1 | -1.32 | 55.7 | -0.144 | 64.6 | inactive
CPLANE2 | 2 | -1.85 | 45.1 | -2.95 | 109 | inactive
CPLANE2 | 3 | 0.644 | 94.7 | -0.183 | 111 | inactive
FGD6 | 1 | -1.21 | 57.9 | -1.81 | 104 | inactive
FGD6 | 2 | -1.25 | 56.9 | -1.45 | 93.2 | inactive
FGD6 | 3 | 0.629 | 94.4 | 0.374 | 95.6 | inactive
DOCK4 | 1 | 0.161 | 85.1 | -0.2 | 100 | inactive
DOCK4 | 2 | 0.357 | 89 | -0.0403 | 100 | inactive
DOCK4 | 3 | 0.809 | 98 | -0.0407 | 111 | inactive
ZNF695 | 1 | -2.27 | 36.8 | -1.96 | 68.9 | inactive
ZNF695 | 2 | 0.205 | 86 | -0.416 | 107 | inactive
ZNF695 | 3 | 0.132 | 84.5 | -0.108 | 97.2 | inactive
HEBP1 | 1 | 3.63 | 154 | 2.34 | 93.1 | active
HEBP1 | 2 | -0.143 | 79 | -0.04 | 89.3 | inactive
HEBP1 | 3 | -0.751 | 67 | -0.478 | 84.9 | inactive
TOGARAM2 | 1 | -0.256 | 76.8 | -0.796 | 106 | inactive
TOGARAM2 | 2 | -0.171 | 78.5 | -0.375 | 96.8 | inactive
TOGARAM2 | 3 | -0.739 | 67.2 | -0.129 | 77.7 | inactive
FBXO32 | 1 | -0.89 | 64.2 | 0.138 | 69.2 | inactive
FBXO32 | 2 | 0.463 | 91.1 | 0.482 | 89.7 | inactive
FBXO32 | 3 | -0.422 | 73.5 | -1.17 | 112 | inactive
FAM32A | 1 | -2.5 | 32.1 | -2.52 | 69.7 | inactive
FAM32A | 2 | 0.389 | 89.6 | -0.0563 | 102 | inactive
FAM32A | 3 | -0.637 | 69.2 | 0.177 | 73.8 | inactive
NCOR1P1 | 1 | 0.481 | 91.4 | 0.684 | 85.3 | inactive
NCOR1P1 | 2 | 0.902 | 99.8 | 0.802 | 90.3 | inactive
NCOR1P1 | 3 | -0.809 | 65.8 | -0.499 | 83.9 | inactive
ACBD4 | 1 | -0.769 | 66.6 | -0.163 | 77.7 | inactive
ACBD4 | 2 | -1.18 | 58.3 | -1.11 | 87.4 | inactive
ACBD4 | 3 | -1.45 | 53 | -0.677 | 70.8 | inactive
PATE1 | 1 | -1.2 | 58.1 | -1.38 | 93.3 | inactive
PATE1 | 2 | -3.2 | 18.3 | -5.01 | 76.2 | inactive
PATE1 | 3 | -0.742 | 67.1 | 0.049 | 74 | inactive
GRB14 | 1 | 0.426 | 90.4 | -0.235 | 107 | inactive
GRB14 | 2 | 0.0927 | 83.7 | -0.0431 | 94.6 | inactive
GRB14 | 3 | -0.625 | 69.4 | -0.855 | 97.2 | inactive
RNASE1 | 1 | 0.537 | 92.6 | 1.17 | 76.1 | inactive
RNASE1 | 2 | 2.33 | 128 | 1.76 | 90.1 | inactive
RNASE1 | 3 | 1.69 | 116 | 1.48 | 87.4 | inactive
FOXD4L6 | 1 | 2.4 | 130 | 2.26 | 79.9 | inactive
FOXD4L6 | 2 | 0.996 | 102 | 0.785 | 92.4 | inactive
FOXD4L6 | 3 | 2.46 | 131 | 3.37 | 60.1 | inactive
MNAT1 | 1 | -0.131 | 79.3 | -0.394 | 98.3 | inactive
MNAT1 | 2 | -0.594 | 70.1 | -0.675 | 93.5 | inactive
MNAT1 | 3 | 1.89 | 120 | 3 | 60.6 | inactive

Ordered by “total luciferase, % of control” (low to high): some entries from above.
Target gene | reagent | total luciferase, z-score | total luciferase, % of control | luciferase per cell, z-score | viable cells, % of control | Call
DOCK4 | 1 | 0.161 | 85.1 | -0.2 | 100 | inactive
DOCK4 | 2 | 0.357 | 89 | -0.0403 | 100 | inactive
FGD6 | 3 | 0.629 | 94.4 | 0.374 | 95.6 | inactive
DOCK4 | 3 | 0.809 | 98 | -0.0407 | 111 | inactive
